Source: article PMC12040169 (PLOS Biology, 2025)
Some of the results follow.

System: T1, CTL2-GFP (C. trachomatis L2/434/Bu, GFP-expressing)
T1 construct: L2/434/Bu, GFP-expressing
Design: species or system HeLa; Intracellular C. trachomatis growth in HeLa cells, bulk GFP fluorescence relative to DMSO
Settings: bulk GFP, single well; 28.5 h, 10 µM; inhibitor

| Compound | % of control remaining [%] |
| --- | --- |
| CCOC(=O)c1nc2c(n1C)[C@H]1[C@H](O)[C@H](O)C[C@H]1C1(CCC1)N2 [CBK303241] | 139.605 |
| O=C1COc2ccccc2C/C=C/CC2(CCN(Cc3cncnc3)CC2)CN1 [CBK292130] | 74.7238 |
| Cc1nc(-c2cc3c(s2)CCN(CC(O)Cn2cccn2)C3)cs1 (stereo not drawn) [CBK304458] | 124.264 |
| Cc1cc(C)c2c(n1)nn1c(C)c(CCC(=O)O)c(C)nc21 [CBK265892] | 113.429 |
| O=C(NC1CC2(CCCCC2)Oc2ccccc21)C1CCOC1 (stereo not drawn) [CBK283760] | 108.715 |
| COC(=O)[C@@H]1Cc2ncn(Cc3ccc(Cl)cc3)c2CN1C(=O)c1ccc(OC)cc1 [CBK288983] | 126.39 |
| COc1cccc(C(=O)N2CCC[C@@H](N)[C@@H]2c2ccccc2F)c1 [CBK283457] | 110.87 |
| CC1(C)CC(=O)C=C(C(=O)NCc2ccc(OC3CCNCC3)cc2)O1 [CBK038948T] | 114.286 |
| CC(C)(C)OC(=O)NCCNCc1cc(F)cc(F)c1 [CBK056698] | 159.274 |
| COc1cc(OC)cc(-c2c(C)ncnc2OC)c1 [CBK306765] | 123.417 |
| CNS(=O)(=O)c1ccc(C(C)NC(=O)N2CCN3CCC2CC3)cc1 (stereo not drawn) [CBK304765] | 149.174 |
| O=C(CN1CCC(c2ccc(F)cc2)CC1)N1CCCC1 [CBK283502] | 146.801 |
| Cn1ncc2c1CCCN(C(=O)COc1ccc(F)cc1F)C2 [CBK285229] | 135.248 |
| Cc1ccc2nc(C(=O)NCCSc3nccn3C)cn2c1 [CBK281397] | 121.054 |
| CC(C)c1ccc(-c2cncc(NCc3cccc(Cl)c3)n2)cc1 [CBK065347] | 151.917 |
| CCn1c(SCC(=O)N2CCN(c3ccccc3)CC2)nnc1-c1ccc(N)cc1 [CBK265786] | 95.5367 |
| Cc1ccncc1C(=O)Nc1c(C)noc1C [CBK200393] | 102.312 |
| FC(F)(F)c1ccnc(OCCOc2ccc(Cl)cc2)n1 [CBK115838] | 163.956 |
| O=C(CCc1ccccc1)N1CCC(c2cccc(Cc3cccc(F)c3)n2)CC1 [CBK286219] | 120.537 |
| CCn1cc(S(=O)(=O)NCc2ccccc2OC)cn1 [CBK270304] | 113.903 |
| Cc1cc(C)nc(SCCN2CCOCC2)n1 [CBK261769C] | 113.726 |

Arranged by molecular weight (rising): part of the list above

| Compound | % of control remaining [%] |
| --- | --- |
| COc1cc(OC)cc(-c2c(C)ncnc2OC)c1 [CBK306765] | 123.417 |
| CC(C)(C)OC(=O)NCCNCc1cc(F)cc(F)c1 [CBK056698] | 159.274 |
| O=C(CN1CCC(c2ccc(F)cc2)CC1)N1CCCC1 [CBK283502] | 146.801 |
| Cc1ccc2nc(C(=O)NCCSc3nccn3C)cn2c1 [CBK281397] | 121.054 |
| Cc1nc(-c2cc3c(s2)CCN(CC(O)Cn2cccn2)C3)cs1 (stereo not drawn) [CBK304458] | 124.264 |

Next structures.

| Compound | % of control remaining [%] |
| --- | --- |
| O=C(CSc1nccc2ccccc12)NC1CCCOC1 (stereo not drawn) [CBK282677] | 125.911 |
| Cc1nn(C)c(Cl)c1S(=O)(=O)Nc1ccc2cc(Br)cnc2n1 [CBK073892] | 114.423 |
| CC1CCc2c(sc3ncnc(NCCc4nc5ccccc5[nH]4)c23)C1 (stereo not drawn) [CBK268809] | 111.038 |
| S=C(NCCC(c1ccccc1)c1ccccc1)NC1CCCCC1 [CBK264007] | 102.671 |
| O=C(NCCN1CCCCC1)C1CC(=O)N(Cc2ccccc2)C1 (stereo not drawn) [CBK305150] | 161.478 |
| Cc1cc(C[C@@H]2COC[C@H]2NCc2ccc(C(C)C)cc2)on1 [CBK284884] | 120.594 |
| Cc1cc(C)n(CC(=O)NCC2CCCO2)c(=O)c1C#N (stereo not drawn) [CBK269926] | 147.659 |
| Nc1cccc(-c2cc(Nc3ccc(CCO)cc3)ncn2)c1 [CBK090766] | 125.758 |
| COc1ncccc1C(=O)N1CCc2ccccc2C1 [CBK200336] | 107.545 |
| Cc1cc(F)ccc1NC(=O)c1n[nH]cc1Cl [CBK288020] | 102.792 |
| Cc1cccc(Nc2ncnc3ccccc23)c1 [CBK072827] | 117.583 |
| Cn1c(=S)[nH]c2c(-c3ccccc3)c[nH]c2c1=O [CBK288488] | 88.655 |
| COC(=O)CCn1c(=O)c2c(nc3oc(C(C)(C)C)cn32)n(C)c1=O [CBK306034] | 130.728 |
| COc1cc2cc3c(N)c(C(=O)NCc4cccs4)sc3nc2cc1OC [CBK120215] | 100 |
| CCCNC(=O)c1sc(Nc2ccc(Cl)cn2)nc1C [CBK287850] | 123.466 |
| Cc1ccc(-c2cc(C(=O)O)c3cc4c(C(=O)O)cc(-c5ccc(C)o5)nc4cc3n2)o1 [CBK264342] | 131.142 |
| COc1ccc(-c2cn3cccnc3n2)cc1NC(=O)c1ccccc1 [CBK287296] | 100 |
| C/C(=N\NC(=O)C(C)Sc1ncccn1)C(C)(C)C (stereo not drawn) [CBK020243] | 135.738 |
| O=C(Cc1ccn[nH]1)N1CC(O)CC1c1cc(F)ccc1F (stereo not drawn) [CBK304872] | 98.6095 |
| COc1ccc(CCNc2ncnc3c2cnn3-c2ccc(C)cc2C)cc1OC [CBK294448] | 145.303 |
| Cc1ccc(CNC(=O)C2(c3ccccc3)CCCC2)cc1F [CBK161529] | 139.115 |

| Compound | % of control remaining [%] |
| --- | --- |
| OCC(CO)(CO)NCc1ccc(-c2ccccc2)cc1 [CBK268742C] | 168.939 |
| O=C(Nc1ccc(-n2cc(Cl)cn2)cc1)c1ccncc1 [CBK270249] | 113.964 |
| CCNC(=O)C(C)NC(=O)c1cnn(-c2ccc(Br)cc2)c1C (stereo not drawn) [CBK305021] | 131.378 |
| OCCn1ncc2c(NCc3ccc(-n4cccn4)nc3)ncnc21 [CBK306326] | 100.573 |
| COc1ccc(C(=O)Nc2ccccc2N2CCNCC2)cc1 [CBK029447T] | 103.796 |
| C=C(C)Cn1c(SCCC(=O)OC)nc2sc3c(c2c1=O)CC(C)(C)OC3 [CBK026634] | 96.0031 |
| CC(C)[C@H](CO)Nc1nc(-c2ccco2)cn2ccnc12 [CBK066316] | 101.9 |
| c1ccc(Cn2cc(-c3cncn3CCCN3CCCCC3)cn2)cc1 [CBK281491] | 137.378 |
| Cn1c(SCC(=O)NC(c2ccccc2)c2ccccc2)nnc1-c1ccncc1 [CBK266622] | 172.206 |
| COc1cccc(OC)c1OCCN1CCNCC1 [CBK265089G] | 126.136 |
| CC1CCCN(C(=O)C2C3CCC4(CC(=O)c5ccccc5O4)C32)C1 (stereo not drawn) [CBK284932] | 62.0848 |
| O=C(c1ccccc1)N1CCN(C(=O)c2ccco2)CC1 [CBK068314] | 110.646 |
| COc1ccccc1CN(Cc1cccs1)C(=O)Cn1cnnn1 [CBK305866] | 106.211 |
| COc1ccc([C@]23CN(C)C[C@H]2CCN(C(=O)Nc2cccc(Br)c2)C3)cc1OC [CBK075106T] | 94.3274 |
| C=CCN1CCC(C(=O)NC(=O)NCC2COc3ccccc3O2)CC1 (stereo not drawn) [CBK051099] | 111.608 |
| CC(NC(=O)CC1CCN(Cc2cccc(C(F)(F)F)c2)CC1)c1nc2ccccc2[nH]1 (stereo not drawn) [CBK285952] | 117.822 |
| O=C(O)c1ccc(-c2c(Cl)cc([N+](=O)[O-])cc2Cl)o1 [CBK026623] | 110.55 |
| NS(=O)(=O)c1ccc(NC(=O)c2ccc(COc3ccccc3)o2)cc1 [CBK267915] | 97.5574 |
| COc1c(O)ccc(/C=N\NC(=O)C2COc3cc4ccccc4cc3O2)c1[N+](=O)[O-] (stereo not drawn) [CBK262836] | 117.031 |
| COc1ccc([C@@]23CC[C@@H](NC(=O)c4ccc(F)c(C(F)(F)F)c4)C[C@@H]2N(C)CC3)cc1OC [CBK074967T] | 104.137 |
| Cc1nc(NC(=O)CCN2C(=O)COc3ccccc32)sc1-c1n[nH]c(=S)n1C [CBK295362] | 117.04 |

| Compound | % of control remaining [%] |
| --- | --- |
| Cn1c(=O)n(CC(=O)O)c(=O)c2c1nc(Br)n2Cc1ccccc1 [CBK026617] | 105.429 |
| COc1cc(N2CCCNCC2)ncn1 [CBK085485C] | 127.573 |
| O=C(CSc1nnc(-c2cc(Br)ccc2O)[nH]1)NCCc1ccccc1 [CBK269007] | 118.72 |
| Cc1cc(C)n(S(=O)(=O)c2cc(C(=O)O)c(Cl)cc2Cl)n1 [CBK113170] | 118.623 |
| Cc1cc(NS(=O)(=O)c2cccc(Cl)c2C)n[nH]1 [CBK024382] | 109.875 |
| O=C(NCc1ccccc1)N1CCC(n2cnc3cccnc32)CC1 [CBK282281] | 97.8739 |
| CCn1cc(C(=O)O)c(=O)c2cnc(N3CCN(C(=S)Nc4ccc5c(c4)OCCO5)CC3)nc21 [CBK267895] | 118.915 |
| CC1CCc2nn(CCNC(=O)Cc3cccs3)c(=O)cc2C1 (stereo not drawn) [CBK284465] | 111.076 |
| O=C1OCCN1CCN1CCCN(Cc2ccc(F)cc2)CC1 [CBK304023] | 152.198 |
| c1coc(-c2nc3cnccn3c2NC2CCCCC2)c1 [CBK283498] | 132.861 |
| O=C(CSc1ncn(-c2ccccc2)n1)Nc1cc(Cl)cc(Cl)c1 [CBK268261] | 111.79 |
| O=C(Cc1ccc([N+](=O)[O-])cc1)Nc1ccc(O)cc1C(=O)O [CBK265977] | 155.775 |
| Cc1nc(N/N=C/c2ccc3c(c2)OCO3)sc1C [CBK263098] | 94.0367 |
| CCOc1cc(CNCc2ccc(C(=O)O)cc2)ccc1OC [CBK270029C] | 151.779 |
| Cc1nc(NC(=O)c2c(F)cccc2F)sc1C [CBK300495] | 139.787 |
| C=CCC1(CC=C)CCN1C(=O)Cc1c(C)nc(SC)[nH]c1=O [CBK282661] | 123.731 |
| COc1cccc2c1ncc1c(=O)nc(N)sc12 [CBK291241] | 144.239 |
| COc1ccccc1C(NC(=O)C1CCN(CCn2cnc3c2c(=O)n(C)c(=O)n3C)CC1)c1ccccn1 (stereo not drawn) [CBK147939] | 100 |
